15 compounds from PubChem BioAssay AID977622 (Broad Institute, 2014) can be followed below.

The list shows a part of the results. These are further read-outs of the screen, such as a control signal, another cell line or another target. No call is given for them.

The nature of test [1]: growth inhibition of wild-type GFP E. coli, dose response, h38 mutant RFP, cherry-pick (AID 977622). Conditions: E. coli mixed culture, 24 h, total growth OD600 at 50 uM.
Test [2] relates to E. coli h38 humanized mutant ribosome RFP fluorescence, mixed culture, 24 h. Described as above. Particulars: h38 mutant RFP at 50 uM.

With `CCCCn1c(NS(=O)(=O)c2ccc(C)cc2)c(C(=O)OCC)c2nc3ccccc3nc21`, the activity change in test [1] is -21.7%; in test [2], -0.659%.

As to `CC(C)Cc1nc(N2CCNCC2)c(C#N)c2c1CCC2`, the activity change in test [1] was -29.9%; in test [2], -9.06%.

For `O=C(c1ccc(Cl)cc1)C1CCCN(Cc2cccc3cnccc23)C1` (configuration not stated), the activity change is -36.6% in test [1] and 0.893% in test [2].

`Nc1c(C(=O)NCCN2CCOCC2)c2nc3ccccc3nc2n1Cc1ccccc1`: the activity change in test [1] is -4.54%.

In the case of `CC(=O)OC1N=C(c2ccccc2Cl)c2cc(Br)ccc2NC1=O` (configuration not stated), the activity change in test [1] was -25.7%; in test [2] it was -59.6%.

As to `Cc1c(C(=O)Nc2ccccc2)c2cc(O)ccc2n1Cc1ccccc1`, the values for the activity change in test [1] and in test [2] were 2.52% and 10.2%, respectively.

For the compound `CN1CCC(c2c[nH]c3ccccc23)C1` (configuration not stated), in test [1], the activity change is -6.23%.

As for `O=[N+]([O-])c1ccc(N2CCOCC2)c2c1no[n+]2[O-]`, the activity change in test [1] was -10.2%; in test [2] it was -13.5%.

As for `CN(c1ccccc1)c1ccc([N+](=O)[O-])c2nonc12`, the values for the activity change in test [1] and in test [2] were -27.2% and -2.96%, respectively.

For the compound `CCOC(=O)[C@]12Cc3ccccc3[C@H]1N(C)C(=O)c1cc(OC)ccc12`, the activity change is -45.4% in test [1] and -29.1% in test [2].

With `CCOC(=O)c1c(C)n(Cc2ccccc2)c2ccc(O)cc12`, the figures for the activity change in test [1] and in test [2] were -33.8% and -28.1%, respectively.

For `CCOC(=O)C12C(=O)OCC1C2c1ccccc1` (configuration not stated), the figures for the activity change in test [1] and in test [2] were 7.21% and 13.9%, respectively.

As for `CSc1ccc(CN2CCN(Cc3ccccc3Cl)CC2)cc1`, the activity change in test [1] is -35.5%; in test [2], 43.6%.

`Cc1c(-c2cccc(Cl)c2)nc2ccccc2c1C(=O)N1CCC2(CC1)OCCO2`: the activity change in test [1] is -19.6%.

For `COc1cc(O)c2c(c1)/C=C/C[C@H](O)[C@H](O)C(=O)CCC[C@H](C)OC2=O`, the figures for the activity change in test [1] and in test [2] were -25.3% and -14.5%, respectively.
